Test: Bioavailability and pharmacokinetics of diazepam preparations after IV and IN administration
Details: rabbits, repeated intranasal application 5 minutes after the first dosing

For `CN1C(=O)CN=C(c2ccccc2)c2cc(Cl)ccc21` [Diazepam, diazepam], the “time at which plasma diazepam level after the second dosing exceeds that of the single IV administration” value was ≤ 7 min.
